SMILES strings stand for the structures.

One series relates to HeLa cells. Kind of series: Cellular uptake and intracellular localization by confocal microscopy. It counts as cell-based, human. Particulars: 0.5 μM for 1, 1 μM for 2 and 15, 5 μM for 8; 30 min at 37 °C; λex 561 nm.
Take `CCCCCC[n+]1ccc(/C(C#N)=C2/C=C(C)c3ccc(N(CC)CC)cc3O2)cc1` [Compound 15]: the intracellular localization result is given as “accumulated in mitochondria but not in nucleoli”.

In the case of `CCN(CC)c1ccc2c(c1)O/C(=C(/C#N)c1ccncc1)C=C2C` [Compound 8], the intracellular localization result was “accumulated mainly in nucleoli as well as in vesicles”.

In the case of `CCN(CC)c1ccc2c(c1)O/C(=C(/C#N)c1cc[n+](CC(F)(F)F)cc1)C=C2C` [Compound 2], the intracellular localization entry was “accumulated preferentially in mitochondria”.

For `CCN(CC)c1ccc2c(c1)O/C(=C(/C#N)c1cc[n+](C)cc1)C=C2C` [Compound 1], the intracellular localization result is “accumulated preferentially in mitochondria”.

Test system in the next series: not listed separately
In words: Singlet oxygen generation, cell-free DPBF assay. It counts as physicochemical. Particulars: air-saturated DCM; 505 nm LED; DPBF scavenger; methylene blue reference.
Consider `CCCCCC[n+]1ccc(/C(C#N)=C2/C=C(C)c3ccc(N(CC)CC)cc3O2)cc1` [Compound 15], for which the “singlet oxygen quantum yield ΦΔ” value amounted to 0.11. Turning to `CCN(CC)c1ccc2c(c1)O/C(=C(/C#N)c1cc[n+](CC(F)(F)F)cc1)C=C2C` [Compound 2], the “singlet oxygen quantum yield ΦΔ” value amounted to 0.046. As for `CCN(CC)c1ccc2c(c1)O/C(=C(/C#N)c1cc[n+](C)cc1)C=C2C` [Compound 1], the “singlet oxygen quantum yield ΦΔ” value was 0.049.

The values above are taken from PMC8667040, “COUPY Coumarins as Novel Mitochondria-Targeted Photodynamic Therapy Anticancer Agents” (Journal of Medicinal Chemistry, 2021).
